In assay [1] the target is C/EBP-homologous protein (CHOP), GAL4 DNA binding domain fusion (pGBKT7-CHOP) (UniProt P35639). The assay is described as follows: two-hybrid; paired test: pGBKT7-CHOP and pGADT7-FBXO15 co-transformed in AH109; growth on SD-WL at 28 C for 3 days, then SD-WLAH; X-Gal overlay for lacZ activity.
The next assay deals with CHOP-FLAG (UniProt P35639). Description: co-IP; Raw264.7 cells transfected with CHOP-FLAG and FBXO15-HA, treated with MG132 (2 uM) for 24 h; immunoprecipitation with anti-FLAG, immunoblotting with anti-HA and anti-FLAG.

Chains of the proteins cited; added tags and fusions are not shown.
UniProt P35639: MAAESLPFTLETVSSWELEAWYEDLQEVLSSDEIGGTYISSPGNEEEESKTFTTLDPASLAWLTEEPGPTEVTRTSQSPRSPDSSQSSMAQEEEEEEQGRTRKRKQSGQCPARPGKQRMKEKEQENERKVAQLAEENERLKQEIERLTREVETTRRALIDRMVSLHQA

Results are given in words; binding and its absence hold for the method and conditions named. For some assays here: In cells and extracts the contact can be indirect. Some results given as binding are weak or reduced against the parent protein; the word gives no strength. For some assays here: Where a sequence is shown, tags or fusion partners need not be part of it.

B1: F-box only protein 15 (FBXO15) full-length protein, pGADT7-FBXO15 (protein, UniProt Q9QZN0 1-433)
chain: MPSEILVKILSYLDAVTLVCIGCVSRRFYHLADDNLIWVRKYAAAFRSKRSRWKATSVEETATSLSLLSVWDKEDGYWKKEYITKQISSVRAALTNSLSPVKRRTSLPSKTKESLRISGLGWTIILREASGKEHIMQHSNLSVNDNSVTVFWHDKNWPHVDTLSTLDLYGATPIFMEQYKGPNTSCPRWLSLIEKYDLSNLRKSAMIGCDRHVRVFCVNPGLLVGLWQENGGLAFVMANIHSHGLFERSIMGSDTIPYTLPPDTTFVDNYPDSMTFYGDKGFQLHIDIHGSKTYFLCSTFHNLFCRRAGINNGYVKFLMINLKNNREHLPLVGKVGLEWRTDCLNGRIESCIVVDMTLLDEDKKPIWYVSSPVCLRSACLPDFPQPAYSFEYMDSVGGVCADLGWFENTDEYFIVRLDIYLSVAKLQQWFGRQ
Turning to B1, in assay [1], the binding entry was “binds”.

B2: FBXO15-HA (protein, UniProt Q9QZN0 1-433)
chain: B1 chain
Turning to B2, the binding entry with CHOP-FLAG is listed as “binds”.

(Values after article PMC7648083.)
